Results: article PMC4775226, “Active and water-soluble form of lipidated Wnt protein is maintained by a serum glycoprotein afamin/α-albumin” (eLife, 2016)
Results are given in words; binding and its absence hold for the method and conditions named. For some of these results: In cells and extracts the contact can be indirect. Some binding calls cover weakened binding; strength is not graded here. For some of these results: Sequences can lack the tags named with a protein.

Sequences of proteins named here, by UniProt entry; tags and fusion partners are left off. Residues count along the entry.
UniProt P27467, residues 19-352: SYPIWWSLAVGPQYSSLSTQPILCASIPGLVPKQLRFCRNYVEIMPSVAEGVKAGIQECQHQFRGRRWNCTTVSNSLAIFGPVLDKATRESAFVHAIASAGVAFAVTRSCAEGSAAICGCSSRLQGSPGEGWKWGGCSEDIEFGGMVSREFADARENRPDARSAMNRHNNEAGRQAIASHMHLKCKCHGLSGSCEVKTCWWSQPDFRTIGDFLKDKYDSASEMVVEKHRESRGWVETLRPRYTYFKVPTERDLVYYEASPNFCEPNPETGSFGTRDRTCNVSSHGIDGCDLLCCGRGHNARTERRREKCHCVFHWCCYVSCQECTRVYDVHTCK
UniProt P56704, residues 19-352: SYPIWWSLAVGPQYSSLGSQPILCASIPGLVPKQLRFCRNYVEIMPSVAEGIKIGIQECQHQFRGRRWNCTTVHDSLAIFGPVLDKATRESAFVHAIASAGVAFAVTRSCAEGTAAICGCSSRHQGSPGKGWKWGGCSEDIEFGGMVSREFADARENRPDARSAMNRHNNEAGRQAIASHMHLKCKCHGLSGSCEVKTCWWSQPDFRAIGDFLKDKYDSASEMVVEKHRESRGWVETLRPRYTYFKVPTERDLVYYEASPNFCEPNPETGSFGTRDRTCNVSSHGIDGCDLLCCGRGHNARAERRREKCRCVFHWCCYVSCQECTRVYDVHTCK
UniProt O00744, residues 29-389: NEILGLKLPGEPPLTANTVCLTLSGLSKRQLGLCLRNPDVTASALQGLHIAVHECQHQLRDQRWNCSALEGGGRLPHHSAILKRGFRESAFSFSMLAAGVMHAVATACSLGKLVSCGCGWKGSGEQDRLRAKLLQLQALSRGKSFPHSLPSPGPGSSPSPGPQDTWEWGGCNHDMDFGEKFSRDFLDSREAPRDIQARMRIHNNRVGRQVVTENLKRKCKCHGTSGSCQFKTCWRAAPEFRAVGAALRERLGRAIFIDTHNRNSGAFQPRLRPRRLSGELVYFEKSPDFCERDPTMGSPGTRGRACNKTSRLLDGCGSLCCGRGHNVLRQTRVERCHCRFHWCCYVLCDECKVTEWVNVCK

T1: Tg-tagged human afamin (human) (UniProt P43652)
T1 sequence: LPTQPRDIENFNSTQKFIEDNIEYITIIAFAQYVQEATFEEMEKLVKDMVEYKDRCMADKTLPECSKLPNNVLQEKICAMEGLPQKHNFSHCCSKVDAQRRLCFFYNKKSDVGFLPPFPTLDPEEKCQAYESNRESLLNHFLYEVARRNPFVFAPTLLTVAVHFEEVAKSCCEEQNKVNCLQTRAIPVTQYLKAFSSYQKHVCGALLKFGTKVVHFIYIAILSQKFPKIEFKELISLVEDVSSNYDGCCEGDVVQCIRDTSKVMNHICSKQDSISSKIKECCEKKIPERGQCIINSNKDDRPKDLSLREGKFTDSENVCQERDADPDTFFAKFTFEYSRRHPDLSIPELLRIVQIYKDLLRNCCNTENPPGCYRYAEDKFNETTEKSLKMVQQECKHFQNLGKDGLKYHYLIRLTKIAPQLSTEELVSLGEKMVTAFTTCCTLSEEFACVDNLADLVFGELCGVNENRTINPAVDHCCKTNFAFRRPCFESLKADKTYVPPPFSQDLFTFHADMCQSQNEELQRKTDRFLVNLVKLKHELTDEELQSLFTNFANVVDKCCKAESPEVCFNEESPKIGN

T2: bovine afamin from the serum of the culture medium (bovine) (UniProt G3MYZ3)
T2 sequence: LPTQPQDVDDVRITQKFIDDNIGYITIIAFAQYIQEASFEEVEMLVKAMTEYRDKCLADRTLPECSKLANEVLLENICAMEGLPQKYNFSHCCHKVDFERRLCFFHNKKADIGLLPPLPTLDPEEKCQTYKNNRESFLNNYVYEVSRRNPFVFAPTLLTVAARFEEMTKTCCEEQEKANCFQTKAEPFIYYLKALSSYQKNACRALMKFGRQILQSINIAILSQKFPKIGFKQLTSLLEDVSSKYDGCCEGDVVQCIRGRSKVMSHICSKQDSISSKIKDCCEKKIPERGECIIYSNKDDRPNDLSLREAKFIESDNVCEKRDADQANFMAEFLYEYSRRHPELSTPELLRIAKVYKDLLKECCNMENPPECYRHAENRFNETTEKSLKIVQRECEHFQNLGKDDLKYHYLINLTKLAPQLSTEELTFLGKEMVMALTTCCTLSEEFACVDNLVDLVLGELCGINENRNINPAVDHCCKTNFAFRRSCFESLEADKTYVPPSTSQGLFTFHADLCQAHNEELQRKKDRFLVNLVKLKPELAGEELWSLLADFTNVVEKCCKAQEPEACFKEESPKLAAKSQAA

T3: TARGET-tagged mouse Wnt5a (mouse) (UniProt P22725)
T3 sequence: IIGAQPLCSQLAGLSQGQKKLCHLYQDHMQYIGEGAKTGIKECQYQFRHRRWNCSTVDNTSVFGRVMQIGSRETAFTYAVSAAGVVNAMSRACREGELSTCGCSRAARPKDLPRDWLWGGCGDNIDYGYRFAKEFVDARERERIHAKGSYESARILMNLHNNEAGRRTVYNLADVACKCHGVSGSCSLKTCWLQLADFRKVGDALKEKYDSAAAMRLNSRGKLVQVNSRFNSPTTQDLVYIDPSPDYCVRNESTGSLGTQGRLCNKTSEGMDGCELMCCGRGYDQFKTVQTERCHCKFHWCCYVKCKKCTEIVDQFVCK


Columns and labels:
[1] = molecular target: T1, Tg-tagged human afamin (human); assay: co-IP; anti-Tg antibody P20.1-Sepharose, serum-free culture media of Expi293F cells co-transfected with Tg-hAFM and PA-tagged human Wnts; immunoblot with biotinylated NZ-1
[2] = molecular target: T2, bovine afamin from the serum of the culture medium (bovine); assay: co-IP; anti-bovine AFM monoclonal antibody B91 on Sepharose, 1 ml of serum-containing conditioned medium, 4°C for 3 h, washed three times with TBS; Oriole stain and anti-Wnt3a immunoblot
[3] = molecular target: T3, TARGET-tagged mouse Wnt5a (mouse); assay: SEC; immunoaffinity-purified Wnt preparation on Superdex 200 10/300GL in TBS, no detergent; fractions on nonreducing SDS-PAGE, Coomassie stain and immunoblots; both purified
[4] = molecular target: TARGET-tagged mouse Wnt3a (mouse) (UniProt P27467); assay: SEC; affinity-purified Wnt3a preparation containing AFM on Superdex 200 in the presence of 1% CHAPS; fractions on nonreducing SDS-PAGE, Coomassie stain and immunoblots; both purified
[5] = molecular target: T3, TARGET-tagged mouse Wnt5a (mouse); assay: co-IP; anti-TARGET tag antibody P20.1-Sepharose incubated with serum-containing conditioned medium at 4°C for 3 hr, washed with TBS (20 mM Tris, 150 mM NaCl, pH 7.5), eluted with 0.2 mg/ml C8 peptide; SDS-PAGE, Coomassie or Oriole stain, N-terminal Edman sequencing of the bands

binding [1] | Molecule | other results
binds | PA-tagged human Wnt3a (from UniProt P56704 19-352) | –
binds | PA-tagged human Wnt10b (from UniProt O00744 29-389) | –
– | untagged mouse Wnt3a secreted from L-3a cells (from UniProt P27467 19-352) | binding [2]: binds
binds | PA-tagged human Wnt8a (protein, UniProt Q9H1J5 25-351) VNNFLITGPKAYLTYTTSVALGAQSGIEECKFQFAWERWNCPENALQLSTHNRLRSATRETSFIHAISSAGVMYIITKNCSMGDFENCGCDGSNNGKTGGHGWIWGGCSDNVEFGERISKLFVDSLEKGKDARALMNLHNNRAGRLAVRATMKRTCKCHGISGSCSIQTCWLQLAEFREMGDYLKAKYDQALKIEMDKRQLRAGNSAEGHWVPAEAFLPSAEAELIFLEESPDYCTCNSSLGIYGTEGRECLQNSHNTSRWERRSCGRLCTECGLQVEERKTEVISSCNCKFQWCCTVKCDQCRHVVSKYYCARSPGSAQSLGKGSA | –
– | bovine afamin from the serum of the culture medium (natural protein, UniProt G3MYZ3 22-604, looked up, bovine afamin, serum-derived; Glycoprotein of about 70 kDa; also called AFM; α-albumin; source: endogenous, fetal calf serum in the culture medium) LPTQPQDVDDVRITQKFIDDNIGYITIIAFAQYIQEASFEEVEMLVKAMTEYRDKCLADRTLPECSKLANEVLLENICAMEGLPQKYNFSHCCHKVDFERRLCFFHNKKADIGLLPPLPTLDPEEKCQTYKNNRESFLNNYVYEVSRRNPFVFAPTLLTVAARFEEMTKTCCEEQEKANCFQTKAEPFIYYLKALSSYQKNACRALMKFGRQILQSINIAILSQKFPKIGFKQLTSLLEDVSSKYDGCCEGDVVQCIRGRSKVMSHICSKQDSISSKIKDCCEKKIPERGECIIYSNKDDRPNDLSLREAKFIESDNVCEKRDADQANFMAEFLYEYSRRHPELSTPELLRIAKVYKDLLKECCNMENPPECYRHAENRFNETTEKSLKIVQRECEHFQNLGKDDLKYHYLINLTKLAPQLSTEELTFLGKEMVMALTTCCTLSEEFACVDNLVDLVLGELCGINENRNINPAVDHCCKTNFAFRRSCFESLEADKTYVPPSTSQGLFTFHADLCQAHNEELQRKKDRFLVNLVKLKPELAGEELWSLLADFTNVVEKCCKAQEPEACFKEESPKLAAKSQAA | binding [3]: binds; binding [4]: no binding (condition: with 1% CHAPS); binding [5]: binds
binds | PA-tagged human Wnt1 (protein, UniProt P04628 28-370) ANSSGRWWGIVNVASSTNLLTDSKSLQLVLEPSLQLLSRKQRRLIRQNPGILHSVSGGLQSAVRECKWQFRNRRWNCPTAPGPHLFGKIVNRGCRETAFIFAITSAGVTHSVARSCSEGSIESCTCDYRRRGPGGPDWHWGGCSDNIDFGRLFGREFVDSGEKGRDLRFLMNLHNNEAGRTTVFSEMRQECKCHGMSGSCTVRTCWMRLPTLRAVGDVLRDRFDGASRVLYGNRGSNRASRAELLRLEPEDPAHKPPSPHDLVYFEKSPNFCTYSGRLGTAGTAGRACNSSSPALDGCELLCCGRGHRTRTQRVTERCNCTFHWCCHVSCRNCTHTRVLHECL | –
binds | PA-tagged human Wnt7b (protein, UniProt P56706 25-349) ALSSVVALGANIICNKIPGLAPRQRAICQSRPDAIIVIGEGAQMGINECQYQFRFGRWNCSALGEKTVFGQELRVGSREAAFTYAITAAGVAHAVTAACSQGNLSNCGCDREKQGYYNQAEGWKWGGCSADVRYGIDFSRRFVDAREIKKNARRLMNLHNNEAGRKVLEDRMQLECKCHGVSGSCTTKTCWTTLPKFREVGHLLKEKYNAAVQVEVVRASRLRQPTFLRIKQLRSYQKPMETDLVYIEKSPNYCEEDAATGSVGTQGRLCNRTSPGADGCDTMCCGRGYNTHQYTKVWQCNCKFHWCCFVKCNTCSERTEVFTCK | –
binds | PA-tagged human Wnt9a (protein, UniProt O14904 30-365) YFGLTGSEPLTILPLTLEPEAAAQAHYKACDRLKLERKQRRMCRRDPGVAETLVEAVSMSALECQFQFRFERWNCTLEGRYRASLLKRGFKETAFLYAISSAGLTHALAKACSAGRMERCTCDEAPDLENREAWQWGGCGDNLKYSSKFVKEFLGRRSSKDLRARVDFHNNLVGVKVIKAGVETTCKCHGVSGSCTVRTCWRQLAPFHEVGKHLKHKYETALKVGSTTNEAAGEAGAISPPRGRASGAGGSDPLPRTPELVHLDDSPSFCLAGRFSPGTAGRRCHREKNCESICCGRGHNTQSRVVTRPCQCQVRWCCYVECRQCTQREEVYTCKG | –
binds | PA-tagged human Wnt7a (protein, UniProt O00755 32-349) LGASIICNKIPGLAPRQRAICQSRPDAIIVIGEGSQMGLDECQFQFRNGRWNCSALGERTVFGKELKVGSREAAFTYAIIAAGVAHAITAACTQGNLSDCGCDKEKQGQYHRDEGWKWGGCSADIRYGIGFAKVFVDAREIKQNARTLMNLHNNEAGRKILEENMKLECKCHGVSGSCTTKTCWTTLPQFRELGYVLKDKYNEAVHVEPVRASRNKRPTFLKIKKPLSYRKPMDTDLVYIEKSPNYCEEDPVTGSVGTQGRACNKTAPQASGCDLMCCGRGYNTHQYARVWQCNCKFHWCCYVKCNTCSERTEMYTCK | –
binds | PA-tagged human Wnt5a (protein, UniProt P41221 62-380) IIGAQPLCSQLAGLSQGQKKLCHLYQDHMQYIGEGAKTGIKECQYQFRHRRWNCSTVDNTSVFGRVMQIGSRETAFTYAVSAAGVVNAMSRACREGELSTCGCSRAARPKDLPRDWLWGGCGDNIDYGYRFAKEFVDARERERIHAKGSYESARILMNLHNNEAGRRTVYNLADVACKCHGVSGSCSLKTCWLQLADFRKVGDALKEKYDSAAAMRLNSRGKLVQVNSRFNSPTTQDLVYIDPSPDYCVRNESTGSLGTQGRLCNKTSEGMDGCELMCCGRGYDQFKTVQTERCHCKFHWCCYVKCKKCTEIVDQFVCK | –
binds | PA-tagged human Wnt9b (protein, UniProt O14905 23-357) SYFGLTGREVLTPFPGLGTAAAPAQGGAHLKQCDLLKLSRRQKQLCRREPGLAETLRDAAHLGLLECQFQFRHERWNCSLEGRMGLLKRGFKETAFLYAVSSAALTHTLARACSAGRMERCTCDDSPGLESRQAWQWGVCGDNLKYSTKFLSNFLGSKRGNKDLRARADAHNTHVGIKAVKSGLRTTCKCHGVSGSCAVRTCWKQLSPFRETGQVLKLRYDSAVKVSSATNEALGRLELWAPARQGSLTKGLAPRSGDLVYMEDSPSFCRPSKYSPGTAGRVCSREASCSSLCCGRGYDTQSRLVAFSCHCQVQWCCYVECQQCVQEELVYTCKH | –
